Patent US8119681B2, “2-[1-phenyl-5-hydroxy or methoxy-4alpha-methyl-hexahydrocyclopenta [ƒ]indazole-5-YL]ethyl phenyl derivatives as glucocorticoid receptor ligands” (Merck Sharp & Dohme Corp., priority 2006, dated 2012)
Some entries share one result that the patent states for a list of compounds.

Key:
[1] = molecular target: T1, glucocorticoid receptor (GR) (Homo sapiens, UniProt P04150); test: Ligand binding assay (GR BIND), 3H-dexamethasone displacement, HeLa cell lysate; details: calculated using DEX as a reference
T1 construct: endogenous in cells; host or cells: HeLa (ATCC) cell lysate supernatant
T1 sequence (P04150 1-777): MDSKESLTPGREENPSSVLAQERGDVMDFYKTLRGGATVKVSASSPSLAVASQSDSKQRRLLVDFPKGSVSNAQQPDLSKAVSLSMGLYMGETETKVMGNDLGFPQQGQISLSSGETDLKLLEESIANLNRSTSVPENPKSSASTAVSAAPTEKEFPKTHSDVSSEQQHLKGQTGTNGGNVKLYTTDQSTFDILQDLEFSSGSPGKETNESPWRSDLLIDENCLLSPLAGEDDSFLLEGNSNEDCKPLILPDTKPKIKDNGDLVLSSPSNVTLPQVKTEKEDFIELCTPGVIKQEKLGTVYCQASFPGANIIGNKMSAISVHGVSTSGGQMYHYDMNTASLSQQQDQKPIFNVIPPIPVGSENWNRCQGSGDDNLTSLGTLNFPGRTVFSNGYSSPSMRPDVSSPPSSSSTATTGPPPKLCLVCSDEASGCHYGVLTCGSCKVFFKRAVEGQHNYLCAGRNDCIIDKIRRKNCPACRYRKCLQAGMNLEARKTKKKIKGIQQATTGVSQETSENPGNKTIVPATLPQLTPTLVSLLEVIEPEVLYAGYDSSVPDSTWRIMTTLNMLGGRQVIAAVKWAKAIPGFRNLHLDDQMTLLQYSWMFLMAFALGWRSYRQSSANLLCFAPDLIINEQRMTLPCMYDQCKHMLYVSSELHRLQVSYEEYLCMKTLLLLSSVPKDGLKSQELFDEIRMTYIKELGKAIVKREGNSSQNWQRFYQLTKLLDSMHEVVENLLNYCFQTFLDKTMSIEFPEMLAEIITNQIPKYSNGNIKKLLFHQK
In short: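 HeLa cell lysate supernatant in TEGM (pH 7.2, molybdate) incubated overnight at 4 °C with 3H-dexamethasone trace (6 nM stock) and serially diluted compound, 2% EtOH final. Bound receptor captured on hydroxylapatite, filtered and counted by scintillation; IC50 calculated with dexamethasone as reference.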

[2] = molecular target: T2, human GR (Homo sapiens, UniProt P04150); test: Trans-Activation Modulation of Glucocorticoid Receptor (GRAMMER), MMTV-LUC reporter gene; assay type: cell-based; parameters: endogenous in cells; details: GRAMMER versus GITAR
T2 sequence (P04150 1-777): T1 sequence (P04150 1-777)

| SMILES | IC50 [1] [µM] | maximal transactivation activity compared with maximal transrepression activity [2] |
| --- | --- | --- |
| C[C@]12Cc3cnn(-c4ccc(F)cc4)c3C=C1CC[C@@]2(O)CCc1ccccc1C(F)C(N)=O (single isomer, unassigned) [Example 198] | < 1 | maximal transactivation activity less then maximal transrepression activity |
| C[C@]12Cc3cnn(-c4ccc(F)cc4)c3C=C1CC[C@@]2(O)CCc1cccc(F)c1CNS(=O)(=O)c1ccccc1C#N [Example 94, 2-cyano-N-(2-fluoro-6-{2-[(4αS,5R)-1-(4-fluorophenyl)-5-hydroxy-4α-methyl-1,4,4α,5,6,7-hexahydrocyclopenta[f]indazol-5-yl]ethyl}benzyl)benzenesulfonamide] | < 1 | maximal transactivation activity less then maximal transrepression activity |
| C[C@]12Cc3cnn(-c4ccc(F)cc4)c3C=C1CC[C@@]2(O)CCc1ccc(C#N)cc1C(N)=O [Example 180, 5-cyano-2-{2-[(4αS,5R)-1-(4-fluorophenyl)-5-hydroxy-4α-methyl-1,4,4α,5,6,7-hexahydrocyclopenta[f]indazol-5-yl]ethyl}benzamide] | < 1 | maximal transactivation activity less then maximal transrepression activity |
| C[C@]12Cc3cnn(-c4ccc(F)cc4)c3C=C1CC[C@@]2(O)CCc1cc(Cl)ccc1C(N)=O [Example 171, 4-chloro-2-{2-[(4αS,5R)-1-(4-fluorophenyl)-5-hydroxy-4α-methyl-1,4,4α,5,6,7-hexahydrocyclopenta[f]indazol-5-yl]ethyl}benzamide] | < 1 | maximal transactivation activity less then maximal transrepression activity |
| CCNC(=O)c1ccccc1CC[C@]1(O)CCC2=Cc3c(cnn3-c3ccccc3)C[C@@]21C [Example 27, N-ethyl-2-{2-[(4αS,5R)-5-hydroxy-4α-methyl-1-phenyl-1,4,4α,5,6,7-hexahydrocyclopenta[f]indazol-5-yl]ethyl}benzamide] | < 1 | maximal transactivation activity less then maximal transrepression activity |
| C[C@]12Cc3cnn(-c4ccc(F)cc4)c3C=C1CC[C@@]2(O)CCc1cccc(F)c1C(=O)N1CC(=O)C1 [Example 155, 1-(2-fluoro-6-{2-[(4αS,5R)-1-(4-fluorophenyl)-5-hydroxy-4α-methyl-1,4,4α,5,6,7-hexahydrocyclopenta[f]indazol-5-yl]ethyl}benzoyl)azetidin-3-one] | < 1 | maximal transactivation activity less then maximal transrepression activity |
| C[C@]12Cc3cnn(-c4ccc(F)cc4)c3C=C1CC[C@@]2(O)CCc1cccc(F)c1C(N)=O [Example 68, 2-fluoro-6-{2-[(4αS,5R)-1-(4-fluorophenyl)-5-hydroxy-4α-methyl-1,4,4α,5,6,7-hexahydrocyclopenta[f]indazol-5-yl]ethyl}benzamide] | < 1 | maximal transactivation activity less then maximal transrepression activity |
